# Counter-ions that a name gives are not always drawn. The list shows a part of the results. Most values lie at the level of the controls, where differences are scatter.
# How the values were obtained:
# Conditions in all cases: 5 µM; treatment: days 7-14 after plating, readout day 21
# [1] = system: hPSC-derived cortical neurons (WA09); assay: nucleus area z-score vs screen plate; higher = larger nuclei (more mature)
# [2] = system: hPSC-derived cortical neurons (WA09); assay: total neurite length per nucleus (MAP2) z-score; higher = more neurite growth
# [3] = system: hPSC-derived cortical neurons (WA09); assay: nucleus roundness z-score vs screen plate; higher = rounder nuclei (more mature)
# [4] = system: hPSC-derived cortical neurons (WA09); assay: KCl-induced FOS+/EGR-1+ double-positive nuclei fraction z-score (KCl minus unstimulated); higher = stronger activity-induced IEG response
SMILES,nucleus area z-score [1],total neurite length per nucleus (z-score) [2],nucleus roundness z-score [3],KCl-induced FOS+/EGR-1+ double-positive nuclei fraction z-score [4]
CCc1cccc2c3c([nH]c12)C(CC)(CC(=O)O)OCC3 (configuration not stated) [Etodolac],0.221,-0.0948,0.482,0.587
CO[C@@H]1[C@@H](OC(N)=O)[C@@H](O)[C@H](Oc2ccc3c(O)c(NC(=O)c4ccc(O)c(CC=C(C)C)c4)c(=O)oc3c2C)OC1(C)C [Novobiocin Sodium],0.253,0.137,0.373,0.852
CC(C)(C)NCC(O)COc1cccc2c1CCC(=O)N2 (configuration not stated) [Carteolol HCl],0.139,0.469,0.329,0.0221
Nc1ccc(/N=N/c2ccccc2)c(N)n1 [Phenazopyridine HCl],0.0555,-0.145,0.398,1.17
O=S(=O)(c1cccc2cnccc12)N1CCCNCC1 [Fasudil (HA-1077) HCl],0.744,-1.51,-1.08,-1.74
Cc1nc(=O)c2cc(CN(C)c3ccc(C(=O)N[C@@H](CCC(=O)O)C(=O)O)s3)ccc2[nH]1 [Raltitrexed],-0.208,0.464,0.947,0.869
C=CC(=O)Nc1cccc(C)c1Nc1ncc2cc(-c3c(Cl)c(OC)cc(OC)c3Cl)ccc2n1,0.366,1.6,1,-0.855
CC(C)C[C@H](NC(=O)[C@@H](Cc1cccc2ccccc12)NC(=O)[C@H](Cc1ccc(O)cc1)NC(=O)[C@H](CO)NC(=O)[C@H](Cc1c[nH]c2ccccc12)NC(=O)[C@H](Cc1cnc[nH]1)NC(=O)[C@@H]1CCC(=O)N1)C(=O)N[C@@H](CCCNC(=N)N)C(=O)N1CCC[C@H]1C(=O)NCC(N)=O [Nafarelin Acetate],0.0512,1.19,-0.573,1.16
C=C1/C(=C\C=C2/CCC[C@]3(C)[C@@H]([C@H](C)CCCC(C)(C)O)CC[C@@H]23)C[C@@H](O)C[C@@H]1O [Calcitriol],1.58,-0.332,-0.531,-0.192
C[C@]1(Cn2ccnn2)[C@H](C(=O)O)N2C(=O)C[C@H]2S1(=O)=O [Tazobactam],-0.0156,-0.277,-1.11,-0.252
COc1ccc(C[C@@H]2c3cc(OC)c(OC)cc3CC[N@+]2(C)CCC(=O)OCCCCCOC(=O)CC[N@@+]2(C)CCc3cc(OC)c(OC)cc3[C@H]2Cc2ccc(OC)c(OC)c2)cc1OC [Cisatracurium Besylate],0.638,0.653,-0.753,-0.0983
COC(=O)C1=C(C)NC(C)=C(C(=O)OCC(C)C)C1c1ccccc1[N+](=O)[O-] (configuration not stated) [Nisoldipine],-1.8,-1.3,-0.387,-0.0564
O=C(O)[C@H]1O[C@@H](Oc2cc3oc(-c4ccccc4)cc(=O)c3c(O)c2O)[C@H](O)[C@@H](O)[C@@H]1O [Baicalin],0.382,-0.215,-0.43,0.0329
O=C1OCCN1/N=C/c1ccc([N+](=O)[O-])o1 [Furazolidone],-0.328,-1.74,-0.776,-0.0409
Oc1c(Cl)cc(Cl)c2cccnc12 [Chloroxine],1.58,0.0807,0.659,0.116
CCNC(=O)c1[nH]nc(-c2cc(Cl)c(O)cc2O)c1-c1ccc(OC)cc1,4.39,4.59,-2.62,-1.64
O=c1[nH]nc(Sc2ncc([N+](=O)[O-])s2)n1-c1ccc2c(c1)OCCO2,-19,-6.89,-3.98,-0.931
CN1C2CCC1CC(OC(=O)C(O)c1ccccc1)C2 (configuration not stated) [Homatropine Bromide],0.0223,0.13,-1.13,0.206
CO[C@H]1C[C@@H]2CC[C@@H](C)[C@@](O)(O2)C(=O)C(=O)N2CCCC[C@H]2C(=O)O[C@H]([C@H](C)C[C@@H]2CC[C@H](n3cnnn3)[C@H](OC)C2)CC(=O)[C@H](C)/C=C(\C)[C@@H](O)[C@@H](OC)C(=O)[C@H](C)C[C@H](C)/C=C/C=C/C=C/1C [Zotarolimus(ABT-578)],-3.13,-0.926,-3.99,-0.918
COc1cc(/C=C/C(=O)O)ccc1O [Ferulic Acid],-0.743,0.233,1.04,0.453
CN1CCC(=C2c3ccccc3CCn3c(C=O)cnc32)CC1 [Alcaftadine],1.63,-1.37,-0.78,-0.67
O=C1c2ccccc2C(=O)C1c1ccccc1 [Phenindione],-0.203,0.373,0.0768,-0.39
C[C@@H](O)[C@H]1C(=O)N2C(C(=O)O)=C(S[C@@H]3CN[C@H](C(=O)N(C)C)C3)[C@H](C)[C@H]12 [Meropenem],0.446,0.51,-0.163,-0.117
O=c1[nH]cnc2c1ncn2[C@@H]1O[C@H](CO)[C@@H](O)[C@H]1O [Inosine],0.199,-0.173,0.392,0.846
C[C@H](Cc1cc2c(c(C(N)=O)c1)N(CCCO)CC2)NCCOc1ccccc1OCC(F)(F)F [Silodosin],-0.0875,-0.178,-0.602,-1.62
CC(C)(Oc1ccc(Cl)cc1)C(=O)OCCOC(=O)c1cccnc1 [Etofibrate],-0.598,0.334,0.144,0.0819
COc1cc2c(cc1OC)[C@@H]1Cc3ccc(OC)c(OC)c3CN1CC2 [Rotundine],4.71,-3.07,-3.43,-0.126

SMILES,nucleus area z-score [1],total neurite length per nucleus (z-score) [2],nucleus roundness z-score [3],KCl-induced FOS+/EGR-1+ double-positive nuclei fraction z-score [4]
Nc1ccc(S(=O)(=O)NC(=O)c2ccccc2)cc1 [Sulfabenzamide],0.557,0.71,-0.15,0.153
CCCCC(=O)O[C@]1(C(=O)CO)[C@@H](C)C[C@H]2[C@@H]3CCC4=CC(=O)C=C[C@]4(C)[C@@]3(F)[C@@H](O)C[C@@]21C [Betamethasone Valerate],-0.0285,0.991,1.06,-0.262
Cn1nc(C(C)(C)C)cc1C(=O)N[C@@H](Cc1cccc(Cl)c1)C(=O)NCC#N [Cathepsin Inhibitor 1],-0.203,0.981,1.25,1.24
CC(=O)Nc1ccccc1 [Acetanilide],0.636,0.0561,0.547,0.028
COC(=O)C1=CO[C@@H](O[C@@H]2O[C@H](CO)[C@@H](O)[C@H](O)[C@H]2O)[C@@H]2C(CO)=CC[C@H]12 [Geniposide],-0.224,-0.394,0.0145,-0.353
COc1cc(C(C)=O)ccc1OCCCN1CCC(c2noc3cc(F)ccc23)CC1 [Iloperidone],-0.227,-0.549,-0.363,-1.71
CC[C@H](C)C(=O)O[C@H]1CCC=C2C=C[C@H](C)[C@H](CC[C@@H]3C[C@@H](O)CC(=O)O3)[C@H]21 [Mevastatin],-1.09,0.0729,-0.558,-0.78
CN1CC[C@H](c2c(O)cc(O)c3c(=O)cc(-c4ccccc4Cl)oc23)[C@H](O)C1 [Flavopiridol (Alvocidib)],-18.4,-5.67,-8.9,-0.866
CCn1c(=O)c(-c2cc[nH]n2)cc2c(C)nc(N)nc21,-1.21,-0.19,0.103,-0.31
CC(C)CCNC(=O)[C@H](CC(C)C)NC(=O)[C@H]1O[C@@H]1C(=O)O [Loxistatin Acid (E-64C)],-0.267,0.692,0.361,-0.058
CC(=O)N[C@H]1[C@H]([C@H](O)[C@H](O)CO)OC(C(=O)O)=C[C@@H]1NC(=N)N [Zanamivir],-0.148,-0.0128,-0.0733,0.424
NS(=O)(=O)c1cc(Cl)c(Cl)c(S(N)(=O)=O)c1 [Dichlorphenamide],0.512,0.828,0.473,2.31
CC(=O)Oc1ccc(C(c2ccc(OC(C)=O)cc2)c2ccccn2)cc1 [Bisacodyl],-0.657,-0.302,-0.265,-0.116
C[C@@H](O)[C@H]1C(=O)N2C(C(=O)OCOC(=O)C(C)(C)C)=C(SC3CN(C4=NCCS4)C3)[C@H](C)[C@H]12 [Tebipenem Pivoxil],-0.0929,0.6,0.338,0.33
C[C@]12CC[C@@H]3c4ccc(O)cc4C[C@@H](CCCCCCCCC[S+]([O-])CCCC(F)(F)C(F)(F)F)[C@H]3[C@@H]1CC[C@@H]2O (some centres not stated) [Fulvestrant],1.83,0.433,0.463,0.434
O=C([O-])c1ccccc1O.[Na+] [Sodium salicylate],0.0156,-1.59,-1.75,0.793
CN(C)[C@@H]1C(O)=C(C(N)=O)C(=O)[C@@]2(O)C(O)=C3C(=O)c4c(O)cccc4[C@@](C)(O)[C@H]3[C@H](O)[C@@H]12 [Oxytetracycline Dihydrate],-0.589,2.12,1.52,0.839
CCOC(=O)c1ccc(N)cc1 [Benzocaine hydrochloride],-0.278,0.562,0.831,-0.168
Cc1cc(C(=O)NOCCO)c(Nc2ccc(I)cc2F)n(C)c1=O,-1.17,0.336,-0.045,-0.0709
Cc1cc(NC(=O)Nc2ccc(N(C)C)cc2)c2cc(F)cc(F)c2n1,0.464,-0.462,-0.0294,-0.387
O=P(O)(O)C(Cl)(Cl)P(=O)(O)O [Clodronate Disodium],1.46,0.723,1.4,0.576
O=C1C(=O)N(Cc2ccc(Cl)c(Cl)c2)c2ccccc21 [Apoptosis Activator 2],-0.636,1.3,-0.441,-0.0558
CCCC(=O)Nc1cccc(NC(=O)c2ccccc2Br)c1,0.654,-0.0952,-0.174,1.85
CCCOc1ccc(CCc2nc3cc(-c4c(C)noc4C)ccc3n2CCN2CCOCC2)cc1,-0.367,-0.255,-0.259,0.839
CCN(CCCc1ccccc1)CCCc1ccccc1 [Alverine Citrate],-2.24,-1.29,-0.264,-0.103
COc1cc2nccc(Oc3ccc(NC(=O)C4(C(=O)Nc5ccc(F)cc5)CC4)cc3)c2cc1OC,0.889,1.29,0.919,1.25

# Two consecutive compounds out of the list so far:
SMILES,nucleus area z-score [1],total neurite length per nucleus (z-score) [2],nucleus roundness z-score [3],KCl-induced FOS+/EGR-1+ double-positive nuclei fraction z-score [4]
COc1cc(/C=C/C(=O)O)ccc1O [Ferulic Acid],-0.743,0.233,1.04,0.453
CN1CCC(=C2c3ccccc3CCn3c(C=O)cnc32)CC1 [Alcaftadine],1.63,-1.37,-0.78,-0.67

# — the supplement of paper PMC11348887
